From the supplement of paper PMC12024529
Where a name gives a salt, the structure may show the parent alone. Some of the results follow. Part of the spread comes from offsets between plates or batches.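 Wild-type or misfolding-prone missense mutant B-domain-deleted factor VIII, fused to Gaussia luciferase, is stably expressed in HEK293 lines. Each score is (mean triplicate-well luminescence minus DMSO mean) divided by DMSO standard deviation. Hits score at least 2; lower scores could stem from decreased secretion or poorer cell viability.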

What was measured:
[1] = test system: HEK293 WT BDD-FVIII-Gluc; test: secreted FVIII-Gluc luciferase Z-score vs DMSO control; higher = more FVIII-Gluc secretion; settings: 5 µM; 24 h
[2] = test system: HEK293 p.N1941S BDD-FVIII-Gluc; test: as above; settings: 5 µM; 24 h

Compound	secreted FVIII-Gluc luciferase Z-score [1]	secreted FVIII-Gluc luciferase Z-score [2]
CC[N+](CC)(CC)CCOc1cccc(OCC[N+](CC)(CC)CC)c1OCC[N+](CC)(CC)CC [Gallamine triethiodide (Flaxedil)]	inactive: -0.214	inactive: 0.752
CCCCC[C@H](O)/C=C/[C@H]1[C@H](O)CC(=O)[C@@H]1CCCCCCC(=O)O [Alprostadil (Caverject)]	inactive: -1.94	inactive: -2.24
CCOc1ccc2ccccc2c1C(=O)N[C@@H]1C(=O)N2[C@@H]1SC(C)(C)[C@@H]2C(=O)O [nafcillin sodium monohydrate]	inactive: -0.997	inactive: 0.148
Cc1c(Nc2ncccc2C(=O)O)cccc1C(F)(F)F [Flunixin meglumin]	inactive: -1.3	inactive: -1.15
Cc1ccc(NC(=O)c2ccc(CN3CCN(C)CC3)cc2)cc1Nc1nccc(-c2cccnc2)n1 [Imatinib (Gleevec)]	inactive: -3.22	inactive: -1.99
CC[C@H](C)[C@H](N)C1=N[C@H](C(=O)N[C@@H](CC(C)C)C(=O)N[C@H](CCC(=O)O)C(=O)N[C@H](C(=O)N[C@H]2CCCCNC(=O)[C@H](CC(N)=O)NC(=O)[C@@H](CC(=O)O)NC(=O)[C@H](Cc3cnc[nH]3)NC(=O)[C@@H](Cc3ccccc3)NC(=O)[C@H]([C@@H](C)CC)NC(=O)[C@@H](CCCN)NC2=O)[C@@H](C)CC)CS1 [Bacitracin]	inactive: 1.26	inactive: 0.666
CN[C@H]1CC[C@@H](c2ccc(Cl)c(Cl)c2)c2ccccc21 [Sertraline HCl]	inactive: -0.159	inactive: -1.87
CCC1=C[C@@H]2CN(C1)Cc1c([nH]c3ccccc13)[C@@](C(=O)OC)(c1cc3c(cc1OC)N(C)[C@H]1[C@@](O)(C(=O)OC)[C@H](OC(C)=O)[C@]4(CC)C=CCN5CC[C@]31[C@@H]54)C2 [Vinorelbine Tartrate]	inactive: -5.6	inactive: -3.47
COc1ccc(O)cc1 [Mequinol]	inactive: 0.246	inactive: -0.827
NC(=O)c1ncn([C@@H]2O[C@H](CO)[C@@H](O)[C@H]2O)n1 [Ribavirin (Copegus)]	inactive: -0.159	inactive: -1.62
CCN1CCN(C(=O)N[C@@H](C(=O)N[C@@H]2C(=O)N3C(C(=O)O)=C(CSc4nnnn4C)CS[C@H]23)c2ccc(O)cc2)C(=O)C1=O [Cefoperazone (Cefobid)]	inactive: -1.13	inactive: 0.259
Nc1ccn([C@H]2CC[C@@H](CO)O2)c(=O)n1 [Zalcitabine]	inactive: -3.29	inactive: -0.207
Cc1cc(=O)[nH]c(=S)[nH]1 [Methylthiouracil]	inactive: 0.956	inactive: -0.411
CN1CCC(=C2c3ccccc3CC(=O)c3sccc32)CC1 [Ketotifen fumarate (Zaditor)]	inactive: -1.77	inactive: -3.76
NC(=O)c1cn(Cc2c(F)cccc2F)nn1 [Rufinamide (Banzel)]	inactive: -0.992	inactive: -5.14
Nc1nc2c(ncn2COC(CO)CO)c(=O)[nH]1 [Ganciclovir]	inactive: -1.59	inactive: -3.86
CC(C)CC(N)=O [Isovaleramide]	inactive: -0.987	inactive: 1.08
O=NN(CCCl)C(=O)NC1CCCCC1 [Lomustine (CeeNU)]	inactive: -0.638	inactive: -0.586
O=C1N=C(O)NC1(c1ccccc1)c1ccccc1 [Phenytoin sodium (Dilantin)]	inactive: -1.65	inactive: -0.235
CCc1ccc(CCOc2ccc(CC3SC(=O)NC3=O)cc2)nc1 (centres undefined) [Pioglitazone (Actos)]	inactive: -0.124	inactive: -0.882
O=C(Nc1ccccc1)c1ccccc1O [Salicylanilide]	inactive: 1.04	inactive: 0.59
CC(N)C12CC3CC(CC(C3)C1)C2 (centres undefined) [Rimantadine (Flumadine)]	inactive: -0.967	inactive: -0.568
O=C(O)Cc1ccccc1Nc1c(Cl)cccc1Cl [Diclofenac]	inactive: -2.45	inactive: -2.85
Nc1ccc(C(=O)O)c(O)c1 [Aminosalicylate sodium]	inactive: -1.12	inactive: 0.54

Exported comma-delimited: 2 of the compounds above
Compound,secreted FVIII-Gluc luciferase Z-score [1],secreted FVIII-Gluc luciferase Z-score [2]
Cc1cc(=O)[nH]c(=S)[nH]1 [Methylthiouracil],inactive: 0.956,inactive: -0.411
NC(=O)c1cn(Cc2c(F)cccc2F)nn1 [Rufinamide (Banzel)],inactive: -0.992,inactive: -5.14

Next compounds follow:

Compound	secreted FVIII-Gluc luciferase Z-score [1]	secreted FVIII-Gluc luciferase Z-score [2]
CC(C)NCC(O)COc1ccc(CCOCC2CC2)cc1 (centres undefined) [Betaxolol hydrochloride (Betoptic)]	inactive: -2.4	inactive: -1.53
CCC(=O)O[C@]1(C(=O)CCl)[C@@H](C)C[C@H]2[C@@H]3CCC4=CC(=O)C=C[C@]4(C)[C@@]3(F)[C@@H](O)C[C@@]21C [Clobetasol propionate]	active: 5.29	active: 7.8
O=c1ccn([C@@H]2O[C@H](CO)[C@@H](O)[C@H]2O)c(=O)[nH]1 [Uridine]	inactive: 1.66	inactive: 1.33
CC(C)(C#N)c1cc(Cn2cncn2)cc(C(C)(C)C#N)c1 [Anastrozole]	inactive: 0.471	inactive: -2.66
OC(CCN1CCCC1)(c1ccccc1)C1CCCCC1 (centres undefined) [Procyclidine HCl]	inactive: -1.78	inactive: -1.64
COc1cc(C(=O)NC2CCCNC2)cc(OC)c1OC (centres undefined) [Troxipide]	inactive: -1.14	inactive: 0.628
Cc1ccccc1N1C(=O)c2cc(S(N)(=O)=O)c(Cl)cc2NC1C (centres undefined) [Metolazone (Zaroxolyn)]	inactive: -4.36	inactive: 0.695
N=C(N)NS(=O)(=O)c1ccc(N)cc1 [Sulfaguanidine]	inactive: 1.67	inactive: 1.04
OCCOCCN1CCN(C(c2ccccc2)c2ccc(Cl)cc2)CC1 (centres undefined) [Hydroxyzine 2HCl]	inactive: -0.986	inactive: -0.611
CN(C)C/C=C/C(=O)Nc1cc2c(Nc3ccc(F)c(Cl)c3)ncnc2cc1O[C@H]1CCOC1 [Afatinib (BIBW2992)]	inactive: -3.88	inactive: -13.4
COc1ccc(/C=C/C(=O)Nc2ccccc2C(=O)O)cc1OC	inactive: 0.997	inactive: 0.0892
NC(CO)(CO)CO [Trometamol]	active: 2.09	inactive: 0.806
N=C(N)N [Guanidine HCl]	inactive: -0.194	inactive: 0.655
C[C@H]1O[C@H](O[C@H]2[C@H](O)[C@@H](O)[C@@H](O[C@H]3[C@H](O)[C@@H](O)C(O)O[C@@H]3CO)O[C@@H]2CO)[C@H](O)[C@@H](O)[C@@H]1N[C@H]1C=C(CO)[C@@H](O)[C@H](O)[C@H]1O (some centres undefined) [Acarbose]	inactive: 0.0249	inactive: -0.981
Cc1ccnc(NS(=O)(=O)c2ccc(N)cc2)n1 [Sulfamerazine]	inactive: 0.882	inactive: -0.389
CC(=O)/N=c1/sc(S(N)(=O)=O)nn1C [Methazolamide]	inactive: -0.677	inactive: 0.857
CC(=O)O[C@H]1C(=O)[C@@]2(C)[C@H]([C@H](OC(=O)c3ccccc3)[C@]3(O)C[C@H](OC(=O)[C@H](O)[C@@H](NC(=O)c4ccccc4)c4ccccc4)C(C)=C1C3(C)C)[C@]1(OC(C)=O)CO[C@@H]1C[C@@H]2O [Paclitaxel (Taxol)]	inactive: -3.05	inactive: -11.4
Nc1ccn([C@@H]2CS[C@H](CO)O2)c(=O)n1 [Lamivudine (Epivir)]	inactive: -4.9	inactive: 1.59
Nc1ccc(C(=O)NCC(=O)O)cc1 [Sodium 4-aminohippurate Hydrate]	active: 4.62	active: 3.45
CC[C@]1(O)C[C@H]2CN(CCc3c([nH]c4ccccc34)[C@@](C(=O)OC)(c3cc4c(cc3OC)N(C=O)[C@H]3[C@@](O)(C(=O)OC)[C@H](OC(C)=O)[C@]5(CC)C=CCN6CC[C@]43[C@@H]65)C2)C1 [Vincristine sulfate]	inactive: -4.12	inactive: -13.9
CCOC(=O)c1ccc(C#Cc2ccc3c(c2)C(C)(C)CCS3)nc1 [Tazarotene (Avage)]	inactive: -0.305	inactive: -1.13
N[C@@H](Cc1cc(I)c(Oc2ccc(O)c(I)c2)c(I)c1)C(=O)O [Liothyronine Sodium]	inactive: 1.25	inactive: 0.644
COc1ccc(-c2ccc3cc(C(=O)O)ccc3c2)cc1C12CC3CC(CC(C3)C1)C2 [Adapalene]	inactive: -3.96	inactive: -13.3
